# Small-molecule microarray binding calls

Data from the ROBIN nucleic acid binder screens, doi:10.1002/anie.202211358.

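The test is a small-molecule microarray: each compound is printed twice on a reactive slide, and binding shows as fluorescence of the labelled oligonucleotide after washing. The data file lists only calls. An earlier report of the laboratory on the PreQ1, TPP and SAM-II riboswitches (doi:10.1038/s41467-019-09493-3) used 1 µM RNA for 2 h and required a mean Z-score above 3 (spot signal-to-noise against the whole library), a score well above that on a control array, and duplicate spots agreeing (coefficient of variation under 100); it then also set aside compounds that hit other targets, which this list keeps. The cut-offs behind this list may differ. These are primary screening calls, not affinities; a compound without a hit may have attached poorly or may still bind in solution.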 Key: hit = hit, no hit = tested without a hit. The compounds are a random part of those screened. A target missing from an entry has no call listed here.

Targets (5′ to 3′):
T1: SAM-II riboswitch RNA pseudoknot, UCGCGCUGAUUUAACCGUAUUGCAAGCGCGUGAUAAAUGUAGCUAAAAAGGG. About 200 hits among about 21,000 compounds.
T2: TPP riboswitch RNA three-way junction, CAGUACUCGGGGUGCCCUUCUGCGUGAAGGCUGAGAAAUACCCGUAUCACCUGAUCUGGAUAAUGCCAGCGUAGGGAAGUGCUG. About 160 hits among about 24,000 compounds.
T3: PreQ1 riboswitch RNA pseudoknot, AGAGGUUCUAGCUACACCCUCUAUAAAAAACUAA. From B. subtilis. About 170 hits among about 24,000 compounds.

* CC(=O)c1cc2c(cc1N)OCCO2 : T1: no hit; T2: no hit; T3: no hit
* CCCCn1ccnc1C : T1: no hit; T2: no hit; T3: no hit
* O=C(c1ccc2ncsc2c1)N1C[C@@H]2c3ccccc3OC[C@]2(CO)C1 : T1: no hit; T2: no hit; T3: no hit
* COC(=O)CNC(c1ccccc1)c1cc(C)ccc1N (centres undefined) : T1: no hit; T2: no hit; T3: no hit
* COc1ccc(NC(=O)CSc2ccccc2N)c([N+](=O)[O-])c1 : T1: no hit; T2: no hit; T3: no hit
* c1cncc(Nc2nc(-c3cccs3)cs2)c1 : T1: no hit; T2: no hit; T3: no hit
* Cc1c(NCc2cccnc2)cccc1C(=O)NCc1cc(C(C)(C)C)[nH]n1 : T1: no hit; T2: no hit; T3: no hit
* Cc1ccn2c(-c3csc(Nc4ccc(C(=O)O)cc4)n3)c(C)nc2c1 : T1: no hit; T2: no hit; T3: no hit
* CCc1nc2sc3c(NCCN4CCOCC4)ncnc3c2c2c1CCCC2 : T1: no hit; T2: no hit; T3: no hit
* COc1cc(N2CCn3c(nc4cccc(Cl)c43)C2)ccc1N : T1: no hit; T2: no hit; T3: no hit
* Cc1ccc(Nc2c(-c3cccs3)nc3ncccn23)c(C)c1 : T1: no hit; T2: no hit; T3: no hit
* O=C(CN1CCOCC1)N1CCOCC1 : T1: no hit; T2: no hit; T3: no hit
* COc1ccc(C2c3c(-c4c(C)cc(C)cc4O)n[nH]c3C(=O)N2CCO)cc1 (centres undefined) : T2: no hit; T3: no hit
* CC(=O)Nc1cccc(-c2ccc(NCCO)nn2)c1 : T1: no hit; T2: no hit; T3: no hit
* CCOC(=O)C1C(=O)C(=O)N(C(C)C)C1C(=O)OCC (centres undefined) : T1: no hit; T2: no hit; T3: no hit
* COc1cc(OC)c(N2CC(=O)C(c3nc(C)cs3)=C2N)cc1Cl : T2: no hit; T3: no hit
* COc1ccccc1Nc1nc(C2(C)CC(CC(C)C)C(=O)O2)cs1 (centres undefined) : T1: no hit; T2: no hit; T3: no hit
* Cc1nc2sc(C(=O)c3ccc(Cl)cc3)c(N)c2c(C)c1C : T1: no hit; T2: no hit; T3: no hit
* Cc1nc(CCNc2nc(-c3ccccn3)nc3c2CCNCC3)no1 : T1: no hit; T2: no hit; T3: no hit
* Cc1ccccc1CSCCNC(=O)C1(N)CC1 : T1: no hit; T2: no hit; T3: no hit
* c1ccc(-c2cc(NCc3ccccn3)n3ncc(-c4ccccc4)c3n2)cc1 : T2: no hit; T3: no hit
* COc1cc(N)c(-c2nnc(C)o2)cc1OC : T1: no hit; T2: no hit; T3: no hit
* CCOc1cc(C2C(C#N)=C(N)OC3=C2C(=O)CC(C)(C)C3)ccc1OC (centres undefined) : T1: no hit; T2: no hit; T3: no hit
* O=C(O)c1ccc(Nc2cc(-c3ccccc3)ncn2)cc1 : T2: no hit; T3: no hit
* CC1(C)Cc2nc3sc4c(NCc5ccccc5)ncnc4c3cc2CO1 : T1: no hit; T2: no hit; T3: no hit
* Cc1ccccc1NC(=O)c1c(N)sc2c1CCC2 : T1: no hit; T2: no hit; T3: no hit
* Cc1c(Cl)cccc1Nc1nc(-c2ccncc2)cs1 : T1: no hit; T2: no hit; T3: no hit
* C=CCC1(CO)CCCN(S(=O)(=O)N2CCOCC2)C1 (centres undefined) : T1: no hit; T2: no hit; T3: no hit
* OCCn1nc(C2CCCC2)nc1CCc1nc(-c2ccccc2F)no1 : T1: no hit; T2: no hit; T3: no hit
* CCCc1cc(Nc2ccc(C(=O)N3CCCCC3)cc2)n2nc(-c3cccnc3)nc2n1 : T2: no hit; T3: no hit
* Nc1nonc1C(=O)N1CCCN(C(=O)Nc2cccc(C(F)(F)F)c2)CC1 : T2: no hit; T3: no hit
* CCC(O)CN1CCc2[nH]nc(-c3ccc4c(c3)OCO4)c2C1 (centres undefined) : T1: no hit; T2: no hit; T3: no hit
* N#CC1=C(N)OC2=C(C(=O)CCC2)C1c1ccc(F)cc1 (centres undefined) : T1: no hit; T2: no hit; T3: no hit
* Cc1ccc(C(=O)N2CCC(NCC(=O)Nc3cc(C)ccc3F)CC2)cc1 : T1: no hit; T2: no hit; T3: no hit
* Cc1cc(C)c2c3c(sc2n1)C1(CCOC1C)C(C#N)=C(N)O3 (centres undefined) : T1: no hit; T2: no hit; T3: no hit
* CC(C)N1C[C@H](NC(=O)c2ccc(-c3ccccc3Cl)o2)[C@@H](O)C1 : T1: no hit; T2: no hit; T3: no hit
* OCc1ccc(-c2nccn2Cc2cc(-c3ccccc3Cl)on2)o1 : T1: no hit; T2: no hit; T3: no hit
* Cc1nc(Nc2ncc3c(n2)CC(C)CC3=O)nc2ccccc12 (centres undefined) : T1: no hit; T2: no hit; T3: no hit
* CC(=O)c1ccc(Nc2c3c(nc4ccccc24)CCCC3)cc1 : T1: no hit; T2: no hit; T3: no hit

Some entries from above, unchanged:

* OCCn1nc(C2CCCC2)nc1CCc1nc(-c2ccccc2F)no1 | T1: no hit; T2: no hit; T3: no hit
* CCOC(=O)C1C(=O)C(=O)N(C(C)C)C1C(=O)OCC (centres undefined) | T1: no hit; T2: no hit; T3: no hit
* N#CC1=C(N)OC2=C(C(=O)CCC2)C1c1ccc(F)cc1 (centres undefined) | T1: no hit; T2: no hit; T3: no hit